In patent US20260042849A1, “PROTEASE-CLEAVABLE MOIETIES AND METHODS OF USE THEREOF” (CytomX Therapeutics, Inc., priority 2022, published 2026):

Tested on: H292 (human lung cancer-derived cell line) subcutaneous xenograft tumors
Experiment: Intra-tumoral activation assay in H292 xenograft tumors
Assay type: in vivo, nu/nu mice
Settings: tumors collected 7 days after dosing

APMGLKH [CM 7046, also tested as internally quenched peptide probe]
intra-tumoral activation (FIG. 2B): cleaved by proteases present in the tumor resulting in activation of the antibody

ISSGLLSGRSDNH [CM 2001, reference compound]
intra-tumoral activation (FIG. 2B): cleaved by proteases present in the tumor resulting in activation of the antibody
